# Results of single-concentration screens

Chains of the proteins cited; added tags and fusions are not shown.
UniProt P9WNZ1, whole entry: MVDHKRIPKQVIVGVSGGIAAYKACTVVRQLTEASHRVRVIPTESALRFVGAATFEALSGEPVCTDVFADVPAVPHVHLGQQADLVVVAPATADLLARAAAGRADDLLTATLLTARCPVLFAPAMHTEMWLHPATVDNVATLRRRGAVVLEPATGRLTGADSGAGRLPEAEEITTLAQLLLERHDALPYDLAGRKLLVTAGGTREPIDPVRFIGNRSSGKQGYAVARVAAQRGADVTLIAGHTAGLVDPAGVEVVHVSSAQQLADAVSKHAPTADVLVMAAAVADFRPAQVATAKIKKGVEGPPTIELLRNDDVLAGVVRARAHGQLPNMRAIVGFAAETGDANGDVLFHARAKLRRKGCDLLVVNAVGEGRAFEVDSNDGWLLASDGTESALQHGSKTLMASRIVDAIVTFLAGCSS

A: 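Assay of Toxoplasma gondii numbers, read through their beta-galactosidase reporter with a colour substrate. Compounds at 10 µM. The record gives no direction; the compounds picked for IC50 retests had high values, so higher reads as fewer parasites. Of about 67,000 compounds tested this way, about 260 (0.38%) reached 50% or more in at least one test.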
B: 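Enzyme assay of CoaBC with a phosphate dye (Biomol Green) read at 650 nm. Target: Coenzyme A biosynthesis protein CoaBC, Mycobacterium tuberculosis (UniProt P9WNZ1). Concentration: 30 µM. Direction is inferred from only a few compounds that gave an IC50; most scored high, so higher reads as stronger inhibition. Most strong results did not repeat in a second test. Of about 67,000 compounds tested this way, about 40 (0.06%) reached 50% or more in at least one test.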

The filed quantity is “Percent Effect” (%).
The controls that fix the scale are not given in the record; negative values are as filed.
The compounds are a random part of those screened.

For Cc1cc2[nH]c(=O)c(=O)[nH]c2cc1S(=O)(=O)NC1CCC(C)CC1 (configuration not stated) the result was A: -2.07%; B: -0.3953%. With c1ccc(CN2CCC(NCCSc3ncn[nH]3)C2)cc1 (configuration not stated) the screen gave A: 3.636%; B: -1.023%. Cc1ccccc1CC(=O)N(C)CC1(O)CCCN(c2ccccn2)C1 (configuration not stated) read A: -5.036%; B: -0.1239%. CCOc1ccccc1CSCCn1nc2ccccn2c1=O read A: -2.664%; B: -1.512%. Result for O=C(NCc1ccc2nonc2c1)C1CCN(C(=O)C2CCC2)CC1 was A: 1.082%; B: 7.805%. For COCCN1CC[C@@H](OC)[C@@H]1Cc1ccccc1 the result was B: 6.516%. Result for Cc1ccc(NC2CCN(C(=O)c3ccc(C)o3)CC2)nn1 was A: -6.876%; B: 7.928%.

Result for CCc1csc(NC(=O)Nc2c(C)n[nH]c2C)n1 was A: 5.967%; B: -3.185%. CCOc1ccc(NC(=O)NC2CCc3nc(C)nn3C2)cc1Cl (configuration not stated) gave A: -3.029%; B: 0%. Result for O=C(COc1ccccc1)N1CCC[C@]2(C[C@@H](OCC3CC3)CO2)C1 was A: 2.709%; B: -4%. For CC(=O)c1c(C)nn(S(=O)(=O)c2ccc(C)c(C)c2)c1C the result was A: 15.1%; B: 4.509%. With CCS(=O)(=O)N1CCCC2(COCCN(c3ccccn3)C2)C1 (configuration not stated) the screen gave B: 5.013%. CCC(OC)C(=O)N1CCC2(CC1)c1nc[nH]c1CCN2S(C)(=O)=O (configuration not stated) read A: 21.51%; B: 6.667%. Result for [H][C@@]12CCCO[C@]1([H])[C@H](OCC1CCOCC1)CN2C(=O)c1ccnnc1 was A: 5.156%.

Result for COCCN1CCN(Cc2cccc(OCC(N)=O)c2)CC1C (configuration not stated) was A: 0.2101%; B: 5.085%. With Cc1nnc(N2CCCC3(CN(Cc4cccnc4)CCO3)C2)o1.O=C(O)C(F)(F)F.O=C(O)C(F)(F)F.O=C(O)C(F)(F)F (configuration not stated) the screen gave A: 0.3698%. COCCN1C[C@@H]2[C@@H](OC)CCN(C(=O)Cc3ccccc3)[C@@H]2C1 gave B: -4.459%. Result for O=C(c1cc[nH]n1)N1CCC(Nc2cccnn2)CC1 was A: 15.18%; B: 5.897%. O=C(O)C(F)(F)F.O=S(=O)(c1cccs1)N1Cc2nc(CN3CCCC3)oc2C1 read A: 14.52%. Result for COc1ccc(-c2cccc(-c3ccn(CC4COCCO4)n3)c2)nn1 (configuration not stated) was A: 5.733%; B: -1.707%. Cc1ncoc1C(=O)N1CC[C@@H](O)[C@@H](O)[C@H](N2CCC(F)(F)CC2)C1 gave A: -26.59%; B: 1.937%.

CCN(Cc1cccc2c1OCO2)C(=O)NCCOC gave A: 20.8%; B: 0.5362%. Cc1cc(C)n(CC2CCCCN2C(=O)c2ccsc2)n1 (configuration not stated) gave A: 3.63%; B: -16.97%. With Cc1noc(C)c1CC(=O)N1CCC(c2ccn3nccc3n2)CC1 the screen gave A: 6.933%; B: -0.9132%.

The last 2 entries again:

For Cc1cc(C)n(CC2CCCCN2C(=O)c2ccsc2)n1 (configuration not stated) the result was A: 3.63%; B: -16.97%.
For Cc1noc(C)c1CC(=O)N1CCC(c2ccn3nccc3n2)CC1 the result was A: 6.933%; B: -0.9132%.

Measurements from “University of Dundee, Small-Polar-MMV Screening Library” (2021), ChEMBL document CHEMBL3988442.